# Measurements as given in the supplement of paper PMC10849652.
# The list shows a part of the results.
# Compound: CS(=O)(=O)N1CCN(Cc2cc3nc(-c4cccc5[nH]ncc45)nc(N4CCOCC4)c3s2)CC1 [pictilisib]
# Test: log2 fold change, soluble protein after heating vs DMSO (PISA); higher = thermal stabilisation; K562 lysate, 10 uM; active = over 0.2 and 3.5 SD of the protein, either way, in both replicates (recomputed)
# Method in brief: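 Pellets of K562 cells were dounce-homogenised in PBS pH 7.4 with 1 mM MgCl2, and the crude extract was held at 1 mg/mL protein for a 30 min treatment with 10 μM compound. Aliquots were heated for 3 min over 48°C-58°C and pooled before NP-40 was added to 0.5% at 4°C. The supernatant from 21,000xg for 90 min was quantified by TMTpro 16plex LC-MS/MS with channel sums equalised. Values are reported from duplicates as log-two fold change in thermal stability relative to solvent controls.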
row,Target,log2 fold change
1,PPP4R4 (UniProt Q6NUP7),inactive: -0.071
2,PRKCQ (UniProt Q04759),inactive: 0.013
3,PPP1R3D (UniProt O95685),inactive: -0.004
4,PPP5C (UniProt P53041),inactive: 0.016
5,PRMT9 (UniProt Q6P2P2),inactive: -0.009
6,PRKAR1B (UniProt P31321),inactive: -0.075
7,PRKX (UniProt P51817),inactive: -0.116
8,PRORP (UniProt O15091),inactive: 0.147
9,PRNP (UniProt P04156),inactive: -0.089
10,PRPF19 (UniProt Q9UMS4),inactive: 0.007
11,PPP2R5B (UniProt Q15173),inactive: -0.064
12,PRKD3 (UniProt O94806),inactive: 0.019
13,PPP6R1 (UniProt Q9UPN7),inactive: -0.007
14,PPP6C isoform 3 (UniProt O00743),inactive: -0.015
15,PRKACA (UniProt P17612),inactive: -0.012
16,PRKD2 isoform 3 (UniProt Q9BZL6),inactive: -0.009
17,PPP2R3B (UniProt Q9Y5P8),inactive: 0.123
18,PPP1R14C (UniProt Q8TAE6),inactive: -0.025
19,PRKDC (UniProt P78527),inactive: 0.155
20,PRG4 (UniProt Q92954),inactive: -0.408
21,PPP1R13L (UniProt Q8WUF5),inactive: 0.177
22,PRMT1 (UniProt Q99873),inactive: 0.002
23,PROS1 (UniProt P07225),inactive: 0.017

# Laid out differently: results already given
row | Target | log2 fold change
7 | PRKX (UniProt P51817) | inactive: -0.116
8 | PRORP (UniProt O15091) | inactive: 0.147
9 | PRNP (UniProt P04156) | inactive: -0.089
10 | PRPF19 (UniProt Q9UMS4) | inactive: 0.007
11 | PPP2R5B (UniProt Q15173) | inactive: -0.064
